We go through 2 molecules from doi:10.1101/2024.07.10.601956.

These are yes or no findings as the source states them, for the method shown. In cells and extracts the contact can be indirect. Some entries that bind do so weakly or less than the wild type. Where a sequence is shown, tags or fusion partners need not be part of it.

The target in the assay is T1, N-terminal V5 epitope-tagged human Mtln (nV5-Mtln) (human) (UniProt Q8NCU8).
T1 sequence: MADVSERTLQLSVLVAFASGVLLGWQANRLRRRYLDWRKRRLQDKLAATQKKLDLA
In words: co-IP.

B1: Mitoregulin (Mtln), endogenous, human A549 cells (protein, UniProt Q8NCU8 1-56)
chain: T1 sequence
For the molecule B1, the binding entry is on record as “binds”.

B2: Native (untagged) wildtype human Mtln expressed from a plasmid (protein, UniProt Q8NCU8 1-56)
chain: T1 sequence
As to B2, the binding entry is “binds”.
